{"source": "PubChem BioAssay (NCATS)", "key": {"[1]": {"test": "Quantitative High-Throughput drug screen in 47 multiple myeloma cell lines against the NCATS MIPE library collection: Delta47_JCRB cell viability assay (AID 1918925; also: potency is read from the fitted curve at half-maximal effect; nearly all actives have a fitted effect of over 45% in size)", "procedure,_shortened": "(§1)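 We plated 500 myeloma cells per well, pinned in MIPE 4.0 compounds, and incubated for 48 hours at 37C. ATP was then quantified with CellTiter-Glo, with DMSO and media-only wells defining 100% and 0%.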"}, "[2]": {"test": "Quantitative High-Throughput drug screen in 47 multiple myeloma cell lines against the NCATS MIPE library collection: AMO1_DSMZ cell viability assay (AID 1918927)", "conditions": "AMO1 myeloma cells viability, CellTiter-Glo ATP luminescence, 48 h; viability, % of DMSO: at 45.8 µM (top of the series)", "procedure,_shortened": "as §1"}, "[3]": {"test": "Quantitative High-Throughput drug screen in 47 multiple myeloma cell lines against the NCATS MIPE library collection: ARP1_JJKsccF8 cell viability assay (AID 1918928)", "procedure,_shortened": "(§2)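 Here, 48 h treatment with MIPE 4.0 agents at 37 °C preceded an ATP luminescence read. Plating density was 500 cells per well.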"}, "[4]": {"test": "Quantitative High-Throughput drug screen in 47 multiple myeloma cell lines against the NCATS MIPE library collection: Karpas620_DSMZ cell viability assay (AID 1918959)", "procedure,_shortened": "(§3)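 Viability readout: CellTiter-Glo luminescence following 5 min room-temperature incubation with reagent. Prior exposure: 48 h, 37C, humidified 5% CO2, 500 cells per well.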"}, "[5]": {"test": "Quantitative High-Throughput drug screen in 47 multiple myeloma cell lines against the NCATS MIPE library collection: KMM1_JCRB cell viability assay (AID 1918960)", "procedure,_shortened": "as §2"}, "[6]": {"test": "Quantitative High-Throughput drug screen in 47 multiple myeloma cell lines against the NCATS MIPE library collection: KHM11_PLB cell viability assay (AID 1918962)", "procedure,_shortened": "as §3"}, "[7]": {"test": "Quantitative High-Throughput drug screen in 47 multiple myeloma cell lines against the NCATS MIPE library collection: JIM3_ECACC cell viability assay (AID 1918963)", "procedure,_shortened": "as §3"}, "[8]": {"test": "Quantitative High-Throughput drug screen in 47 multiple myeloma cell lines against the NCATS MIPE library collection: JIM1_ECACC cell viability assay (AID 1918964)", "conditions": "JIM1 myeloma viability, CellTiter-Glo ATP luminescence, 48 h; viability (% of DMSO): at 45.8 µM (top of the series)", "procedure,_shortened": "as §1"}, "[9]": {"test": "Quantitative High-Throughput drug screen in 47 multiple myeloma cell lines against the NCATS MIPE library collection: JJN3_DSMZ cell viability assay (AID 1918966)", "conditions": "JJN3 myeloma cells viability, CellTiter-Glo ATP, 48 h; viability, % of DMSO: at 45.8 µM (top of the series)", "procedure,_shortened": "as §1"}, "[10]": {"test": "Quantitative High-Throughput drug screen in 47 multiple myeloma cell lines against the NCATS MIPE library collection: H1112_PLB cell viability assay (AID 1918967)", "procedure,_shortened": "as §1"}, "[11]": {"test": "Quantitative High-Throughput drug screen in 47 multiple myeloma cell lines against the NCATS MIPE library collection: Karpas25_ECACC cell viability assay (AID 1918968)", "procedure,_shortened": "as §1"}, "[12]": {"test": "Quantitative High-Throughput drug screen in 47 multiple myeloma cell lines against the NCATS MIPE library collection: KMS12BM_JCRB cell viability assay (AID 1918971)", "procedure,_shortened": "(§4)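 Approved and investigational drugs from MIPE 4.0 were added by pin tool to 500 cells per well. After 48 hours at 37C, ATP-based CellTiter-Glo luminescence indicated remaining viability.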"}, "[13]": {"test": "Quantitative High-Throughput drug screen in 47 multiple myeloma cell lines against the NCATS MIPE library collection: KMS12PE_JCRB cell viability assay (AID 1918972)", "procedure,_shortened": "as §4"}, "[14]": {"test": "Quantitative High-Throughput drug screen in 47 multiple myeloma cell lines against the NCATS MIPE library collection: KMS20_JCRB cell viability assay (AID 1918973)", "conditions": "CellTiter-Glo ATP, 48 h; viability (% of DMSO): at 45.8 µM (top of the series)", "procedure,_shortened": "as §1"}, "[15]": {"test": "Quantitative High-Throughput drug screen in 47 multiple myeloma cell lines against the NCATS MIPE library collection: KMS21BM_JCRB cell viability assay (AID 1918974)", "procedure,_shortened": "as §1"}, "[16]": {"test": "Quantitative High-Throughput drug screen in 47 multiple myeloma cell lines against the NCATS MIPE library collection: KMS26_JCRB cell viability assay (AID 1918975)", "conditions": "KMS26 myeloma cells viability, CellTiter-Glo ATP, 48 h; viability (% of DMSO): at 45.8 µM (top of the series)", "procedure,_shortened": "as §4"}, "[17]": {"test": "Quantitative High-Throughput drug screen in 47 multiple myeloma cell lines against the NCATS MIPE library collection: MMM1_PLB cell viability assay (AID 1918976)", "procedure,_shortened": "(§5)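 MIPE 4.0 approved/investigational drugs; 500 cells/well; 48 h 37 °C humidified 5% CO2; CTG luminescence readout; DMSO = 100%, media = 0% viability.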"}, "[18]": {"test": "Quantitative High-Throughput drug screen in 47 multiple myeloma cell lines against the NCATS MIPE library collection: MOLP8_DSMZ cell viability assay (AID 1918977)", "conditions": "MOLP8 myeloma viability, CellTiter-Glo ATP luminescence, 48 h; viability (% of control): at 45.8 µM (top of the series)", "procedure,_shortened": "as §5"}, "[19]": {"test": "Quantitative High-Throughput drug screen in 47 multiple myeloma cell lines against the NCATS MIPE library collection: NCIH929_DSMZ cell viability assay (AID 1918978)", "procedure,_shortened": "as §5"}, "[20]": {"test": "Quantitative High-Throughput drug screen in 47 multiple myeloma cell lines against the NCATS MIPE library collection: LP1_DSMZ cell viability assay (AID 1918982)", "procedure,_shortened": "as §5"}, "[21]": {"test": "Quantitative High-Throughput drug screen in 47 multiple myeloma cell lines against the NCATS MIPE library collection: KMS28PE_JCRB cell viability assay (AID 1918983)", "procedure,_shortened": "as §5"}, "[22]": {"test": "Quantitative High-Throughput drug screen in 47 multiple myeloma cell lines against the NCATS MIPE library collection: L363_DSMZ cell viability assay (AID 1918984)", "conditions": "L363 myeloma viability, CellTiter-Glo ATP luminescence, 48 h; viability (% of control): at 45.8 µM (top of the series)", "procedure,_shortened": "as §5"}, "[23]": {"test": "Quantitative High-Throughput drug screen in 47 multiple myeloma cell lines against the NCATS MIPE library collection: SKMM1_PLB cell viability assay (AID 1919863)", "conditions": "SKMM1 myeloma viability, CellTiter-Glo ATP, 48 h; viability: hits give low values", "procedure,_shortened": "as §5"}, "[24]": {"test": "Quantitative High-Throughput drug screen in 47 multiple myeloma cell lines against the NCATS MIPE library collection: XG1_PLB cell viability assay (AID 1919866)", "procedure,_shortened": "as §5"}, "[25]": {"test": "Quantitative High-Throughput drug screen in 47 multiple myeloma cell lines against the NCATS MIPE library collection: VP6_DJ cell viability assay (AID 1919867)", "procedure,_shortened": "as §5"}, "[26]": {"test": "Quantitative High-Throughput drug screen in 47 multiple myeloma cell lines against the NCATS MIPE library collection: UTMC2_PLB cell viability assay (AID 1919868)", "conditions": "CellTiter-Glo ATP luminescence, 48 h; series mostly up to 45.8 µM", "procedure,_shortened": "as §5"}, "[27]": {"test": "Quantitative High-Throughput drug screen in 47 multiple myeloma cell lines against the NCATS MIPE library collection: OPM2_DSMZ cell viability assay (AID 1919872)", "procedure,_shortened": "as §1"}, "[28]": {"test": "Quantitative High-Throughput drug screen in 47 multiple myeloma cell lines against the NCATS MIPE library collection: KMS11_JCRBsus cell viability assay (AID 1919873)", "procedure,_shortened": "as §5"}, "[29]": {"test": "Quantitative High-Throughput drug screen in 47 multiple myeloma cell lines against the NCATS MIPE library collection: KMS28BM_JCRB cell viability assay (AID 1919874)", "procedure,_shortened": "as §5"}, "[30]": {"test": "qHTS for identification of novel therapeutic agents for treatment of microphthalmiaassociated transcription factor (MiT) renal cell carcinoma (RCC) (AID 1963991; calls by dose curve)", "conditions": "TFE3-RCC UOK109 viability, CellTiter-Glo, 48 h; active = Z-AUC below -0.8 in all three lines", "procedure,_shortened": "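UOK109/UOK124/UOK145 (TFE3 fusions, three partners); 500 cells/well; MIPE v4.0, 1912 cpds, 11 conc.; 48 h, 37 C; CellTiter-Glo, 15 min RT; lum. Norm.: DMSO 100%, empty 0%.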"}}, "note": "The shares of active, inactive and inconclusive entries below differ from those in the screen. For part of these data: Potencies of inconclusive entries are doubtful fits and often do not repeat. Activity calls are given as the source filed them. Unless noted, calls follow the shape of the dose curve; as a rule, active = well fitted curve in the direction sought with a large enough effect; inconclusive = small, poorly fitted or top-dose-only effect, or another doubt; inactive = no such curve, though single readings can be large; an effect the other way counts as inactive or inconclusive. For viability (% of control) in this document: nearly all actives have a fitted effect of over 45% in size.", "data": [{"smiles": "COc1cc([C@@H]2c3cc4c(cc3[C@@H](O[C@@H]3O[C@@H]5CO[C@@H](C)O[C@@H]5[C@H](O)[C@@H]3O)[C@H]3COC(=O)[C@H]23)OCO4)cc(OC)c1O", "values": [{"measurement": "Potency", "setting": "[1]", "value": "inconclusive: 2350 nM [cytotoxic, full curve]"}, {"measurement": "Potency", "setting": "[2]", "value": "inconclusive: 1870 nM [cytotoxic, full curve]"}, {"measurement": "Potency", "setting": "[3]", "value": "inconclusive: 1320 nM [cytotoxic, full curve]"}, {"measurement": "Potency", "setting": "[4]", "value": "inconclusive: 18700 nM [cytotoxic, partial curve, poor fit]"}, {"measurement": "Potency", "setting": "[5]", "value": "inconclusive: 3320 nM [cytotoxic, partial curve]"}, {"measurement": "Potency", "setting": "[6]", "value": "inactive"}, {"measurement": "Potency", "setting": "[7]", "value": "inconclusive: 10500 nM [cytotoxic, partial curve]"}, {"measurement": "Potency", "setting": "[8]", "value": "inconclusive: 1870 nM [cytotoxic, partial curve, poor fit]"}, {"measurement": "Potency", "setting": "[9]", "value": "inactive"}, {"measurement": "Potency", "setting": "[10]", "value": "inconclusive: 3720 nM [cytotoxic, full curve]"}, {"measurement": "Potency", "setting": "[11]", "value": "inconclusive: 3320 nM [cytotoxic, partial curve]"}, {"measurement": "Potency", "setting": "[12]", "value": "active: 1480 nM"}, {"measurement": "Potency", "setting": "[13]", "value": "inconclusive: 14800 nM [cytotoxic, partial curve]"}, {"measurement": "Potency", "setting": "[14]", "value": "inconclusive: 1870 nM [cytotoxic, full curve]"}, {"measurement": "Potency", "setting": "[15]", "value": "inconclusive: 2640 nM [cytotoxic, full curve, poor fit]"}, {"measurement": "Potency", "setting": "[16]", "value": "inconclusive: 1.2 nM [rising, full curve, poor fit]"}, {"measurement": "Potency", "setting": "[17]", "value": "inconclusive: 1.7 nM [rising, full curve, poor fit]"}, {"measurement": "Potency", "setting": "[18]", "value": "inactive"}, {"measurement": "Potency", "setting": "[19]", "value": "inconclusive: 2350 nM [cytotoxic, full curve]"}, {"measurement": "Potency", "setting": "[20]", "value": "inconclusive: 11.8 nM [rising, full curve, poor fit]"}, {"measurement": "Potency", "setting": "[21]", "value": "inconclusive: 4180 nM [cytotoxic, full curve, poor fit]"}, {"measurement": "Potency", "setting": "[22]", "value": "inconclusive: 16600 nM [cytotoxic, partial curve, poor fit]"}, {"measurement": "Potency", "setting": "[23]", "value": "inconclusive: 7430 nM [cytotoxic, partial curve, poor fit]"}, {"measurement": "Potency", "setting": "[24]", "value": "inconclusive: 1320 nM [cytotoxic, full curve]"}, {"measurement": "Potency", "setting": "[25]", "value": "inconclusive: 2350 nM [cytotoxic, full curve, poor fit]"}, {"measurement": "Potency", "setting": "[26]", "value": "active: 418 nM"}, {"measurement": "Potency", "setting": "[27]", "value": "inconclusive: 37200 nM [cytotoxic, single point]"}, {"measurement": "Potency", "setting": "[28]", "value": "inconclusive: 6620 nM [cytotoxic, partial curve, poor fit]"}, {"measurement": "Potency", "setting": "[29]", "value": "inconclusive: 3720 nM [cytotoxic, full curve, poor fit]"}, {"measurement": "Potency", "setting": "[30]", "value": "inconclusive: 8330 nM [falling, partial curve, poor fit]"}]}]}
